Laboratory results as given in US10280179B2, “Spiroquinoxaline derivatives as inhibitors of non-apoptotic regulated cell-death” (Helmholtz Zentrum Munchen—Deutches Forschungszentrum Fur …, priority 2013, dated 2019).

Test system: Pfa1 cells
Experiment: Cellular toxicity, same assay as Example B.4 without TAM (Example B.5)
Assay type: cell-based, mouse
Conditions: TC50 divided by IC50 from Example B.4
Source text: Cellular Toxicity of Compounds of the Invention
An estimate of the toxicity for compounds of the invention was obtained by using the same assay as described in Example B.4, but without the addition of TAM. […] Such TC50 values obtained for certain compounds disclosed herein, together with an approximate therapeutic window (estimated by dividing each TC50 by the corresponding IC50 determined from example B.4) are shown in Table 3.

Row | Compound | Therapeutic Window (approx.. fold) [fold]
1 | Cc1cc2c(cc1C)NC1(CCNCC1)C(NCc1ccc(Cl)cc1)=N2 [N-214] | >1000
2 | CN1CCC2(CC1)Nc1ccccc1N=C2NCc1cccc(C(F)(F)F)c1 [N-215] | >500
3 | CCCCCCCC(=O)N1CCC2(CC1)Nc1ccccc1N=C2NCc1ccccc1 [N-216] | >20
4 | Cc1cc(C)cc(CNC2=Nc3ccccc3NC23CCNCC3)c1 [N-217] | >200
5 | CC(NC1=Nc2ccccc2NC12CCNCC2)c1ccccc1 (stereo not drawn) [N-218] | >100
6 | Clc1cccc(CNC2=Nc3cc4c(cc3NC23CCNCC3)OCCO4)c1 [N-219] | >50
7 | c1ccc(C(CNC2=Nc3ccccc3NC23CCNCC3)c2ccccc2)cc1 [N-220] | >200
8 | Fc1ccc(CNC2=Nc3ccccc3NC23CCNCC3)c(F)c1 [N-221] | >200
9 | CC(CCc1ccccc1)NC1=Nc2ccccc2NC12CCNCC2 (stereo not drawn) [N-222] | >200
10 | Fc1cc2c(cc1F)NC1(CCNCC1)C(NCc1ccccc1)=N2 [N-223] | >1000
11 | Cc1cccc(CNC2=Nc3cc(Cl)c(Cl)cc3NC23CCNCC3)c1 [N-224] | >1000
12 | c1ccc(CCCCNC2=Nc3ccccc3NC23CCNCC3)cc1 [N-225] | >50
13 | c1ccc(CCNC2=Nc3ccccc3NC23CCNCC3)cc1 [N-226] | >200
14 | CC(C)(C)c1ccc(CNC2=Nc3ccccc3NC23CCNCC3)cc1 [N-227] | >200
15 | c1ccc(CCCNC2=Nc3ccccc3NC23CCNCC3)cc1 [N-228] | >50
16 | CN1CCC2(CC1)Nc1cc(F)c(F)cc1N=C2NCc1ccccc1 [N-229] | >50
17 | CN1CCC2(CC1)Nc1cc(Cl)c(Cl)cc1N=C2NCc1ccccc1 [N-230] | >200
18 | Fc1cccc(F)c1CNC1=Nc2ccccc2NC12CCNCC2 [N-231] | >200
19 | Cc1cc2c(cc1C)NC1(CCNCC1)C(NCc1ccc(Cl)c(Cl)c1)=N2 [N-232] | >1000

Row | Compound | Therapeutic Window (approx.. fold) [fold]
20 | Cc1cc2c(cc1C)NC1(CCN(C)CC1)C(NCc1ccccc1)=N2 [N-233] | >50
21 | CCCCCCCCN1CCC2(CC1)Nc1ccccc1N=C2NCc1ccccc1 [N-234] | >50
22 | Cc1cccc(CNC2=Nc3cc(C)c(C)cc3NC23CCNCC3)c1 [N-235] | >20
23 | Clc1cc2c(cc1Cl)NC1(CCCNCC1)C(NCc1ccccc1)=N2 (stereo not drawn) [N-236] | >50
24 | CC1CC2(CCN1)Nc1ccccc1N=C2NCc1cccc(Cl)c1 (stereo not drawn) [N-239] | >10
25 | CC1CC2(CCN1)Nc1ccccc1N=C2NCc1ccccc1 (stereo not drawn) [N-240] | >50
26 | Cc1cc2c(cc1C)NC1(CCNCC1)C(NCc1cccc(C(F)(F)F)c1)=N2 [N-251] | >10
27 | CC1CN(C)CCC12Nc1ccccc1N=C2NCc1ccccc1 (stereo not drawn) [N-256] | >20
28 | Cc1cc2c(cc1C)NC1(CCNCC1)C(NCc1cccc(F)c1)=N2 [N-257] | >20
29 | Clc1ccc(CNC2=Nc3cc(Cl)c(Cl)cc3NC23CCNCC3)cc1Cl [N-258] | >2
30 | Fc1cc2c(cc1F)NC1(CCNCC1)C(NCc1ccccc1Cl)=N2 [N-259] | >50
31 | FC(F)(F)c1cccc(CNC2=Nc3cc(Cl)c(Cl)cc3NC23CCNCC3)c1 [N-260] | >20
32 | CCCCCCCCCCCCN1CCC2(CC1)Nc1ccccc1N=C2NCc1ccccc1 [N-261] | >20
33 | Cc1cc(C)cc(CNC2=Nc3cc(C)c(C)cc3NC23CCNCC3)c1 [N-262] | >10
34 | Clc1ccccc1CNC1=Nc2ccccc2NC12CCOCC2 [O/S-1] | >100
35 | Clc1cccc(CNC2=Nc3ccccc3NC23CCOCC3)c1 [O/S-2] | >50
36 | Clc1ccc(CNC2=Nc3ccccc3NC23CCOCC3)cc1 [O/S-3] | >50
37 | Fc1cccc(CNC2=Nc3ccccc3NC23CCOCC3)c1 [O/S-5] | >50
38 | Cc1cccc(CNC2=Nc3ccccc3NC23CCOCC3)c1 [O/S-11] | >50

Row | Compound | Therapeutic Window (approx.. fold) [fold]
39 | COc1cccc(CNC2=Nc3ccccc3NC23CCOCC3)c1 [O/S-14] | >20
40 | FC(F)(F)c1cccc(CNC2=Nc3ccccc3NC23CCOCC3)c1 [O/S-23] | >100
41 | Fc1cc(Cl)ccc1CNC1=Nc2ccccc2NC12CCOCC2 [O/S-61] | >50
42 | Clc1cccc(CCNC2=Nc3ccccc3NC23CCOCC3)c1 [O/S-79] | >50
43 | Clc1cccc(CNC2=Nc3cc(Cl)c(Cl)cc3NC23CCOCC3)c1 [O/S-94] | >200
44 | Clc1ccccc1CNC1=Nc2ccccc2NC12CCSCC2 [O/S-167] | >100
45 | Clc1cccc(CNC2=Nc3ccccc3NC23CCSCC3)c1 [O/S-168] | >200
46 | Clc1ccc(CNC2=Nc3ccccc3NC23CCSCC3)cc1 [O/S-169] | >50
47 | FC(F)(F)c1cccc(CNC2=Nc3ccccc3NC23CCSCC3)c1 [O/S-189] | >20
48 | c1ccc(CNC2=Nc3ccccc3NC23CCOCC3)cc1 [O/S-337] | >20
49 | c1ccc(CNC2=Nc3ccccc3NC23CCSCC3)cc1 [O/S-338] | >100
50 | Clc1cc2c(cc1Cl)NC1(CCOCC1)C(NCc1ccccc1)=N2 [O/S-339] | >1000
51 | Cc1cc2c(cc1C)NC1(CCOCC1)C(NCc1ccccc1)=N2 [O/S-340] | >100
52 | Fc1cccc(F)c1CNC1=Nc2ccccc2NC12CCOCC2 [O/S-341] | >50
53 | Cc1cccc(CNC2=Nc3cc(Cl)c(Cl)cc3NC23CCOCC3)c1 [O/S-342] | >500
54 | c1ccc(CCCNC2=Nc3ccccc3NC23CCOCC3)cc1 [O/S-343] | >20
55 | Cc1cc(C)cc(CNC2=Nc3ccccc3NC23CCOCC3)c1 [O/S-344] | >50
56 | Clc1ccc(CNC2=Nc3ccccc3NC23CCOCC3)cc1Cl [O/S-345] | >500
57 | Fc1cc2c(cc1F)NC1(CCOCC1)C(NCc1ccccc1)=N2 [O/S-346] | >200
